Data as given in PubChem BioAssay AID493246 (Drosophila RNAi Screening Center, 2011).
The screen tested about 21,000 reagents; below is an unselected part of those with a known target gene and a result. Over the whole deposit, 429 (2%) were called active. 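Values are raw and not normalised between plates; calls rest on per-plate z-scores that were not deposited.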 Reagents against one gene are numbered here. Names joined by + are all predicted targets of the reagent. No sequences are given here. The record does not give: the amount of reagent, the time to read-out.

Purpose: 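Genome-wide search for dsRNAs that reduce cell number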 (primary screen)
Cell system: Drosophila Kc and S2R+ cells
Knock-down reagent: long dsRNA against Drosophila genes
Measured: 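Raw, unnormalised count of remaining cells in each well; per-plate z-scores of cell number underlie the calls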
Reading the numbers: Kc cell number and S2R+ cell number: higher = more cells remaining
Call rule: 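Active when the per-plate z-score of cell number is 3 or more in the direction of fewer cells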

gene | dsRNA no. | Kc cell number, rep 1 | Kc cell number, rep 2 | S2R+ cell number, rep 1 | S2R+ cell number, rep 2 | call
bb8 | 1 | 1.41e6 | 1.57e6 | 1.04e6 | 1.14e6 | inactive
sqd | 1 | 1.45e6 | 1.59e6 | 1.08e6 | 1.19e6 | inactive
psq | 1 | 2.88e5 | 4.36e5 | 2.94e5 | 4.14e5 | active
Taf3 | 1 | 4.74e5 | – | 7.57e5 | – | inactive
CG6163 | 1 | 1.47e6 | 1.58e6 | 1.40e6 | 1.46e6 | inactive
arx | 1 | 1.55e6 | 1.56e6 | 1.31e6 | 1.31e6 | inactive
CG40498 | 1 | 6.16e5 | – | 8.47e5 | – | inactive
COX6CL | 1 | 1.49e6 | 1.84e6 | 1.13e6 | 1.23e6 | inactive
CG17036 | 1 | 1.80e6 | 2.00e6 | 1.27e6 | 1.40e6 | inactive
prtp | 1 | 1.28e6 | 1.43e6 | 1.04e6 | 1.15e6 | inactive
CG10979 | 1 | 1.31e6 | 1.31e6 | 1.35e6 | 1.48e6 | inactive
CG15456 | 1 | 1.46e6 | 1.50e6 | 1.01e6 | 1.09e6 | inactive
CG15221 | 1 | 1.60e6 | 1.51e6 | 1.02e6 | 1.15e6 | inactive
Dscam4 | 1 | 1.65e6 | 1.82e6 | 1.20e6 | 1.38e6 | inactive
Dscam4 | 2 | 1.53e6 | 1.71e6 | 1.09e6 | 1.26e6 | inactive
Dscam4 | 3 | 1.62e6 | 1.47e6 | 9.87e5 | 1.11e6 | inactive
Dscam4 | 4 | 1.41e6 | 1.33e6 | 8.71e5 | 1.02e6 | inactive
Dscam4 | 5 | 1.52e6 | 1.38e6 | 1.10e6 | 1.22e6 | inactive
CG12398 | 1 | 1.52e6 | 1.55e6 | 1.02e6 | 1.17e6 | inactive
cry | 1 | 1.33e6 | 1.34e6 | 1.14e6 | 1.18e6 | inactive
CG7179 | 1 | 1.66e6 | 1.65e6 | 1.21e6 | 1.39e6 | inactive
Mur11Da | 1 | 1.47e6 | 1.68e6 | 1.12e6 | 1.19e6 | inactive
cbc | 1 | 1.49e6 | 1.67e6 | 1.15e6 | 1.14e6 | inactive
CG6511 | 1 | 1.36e6 | 1.39e6 | 1.12e6 | 1.21e6 | inactive
CG34300 | 1 | 1.42e6 | 1.62e6 | 1.16e6 | 1.40e6 | inactive
Galk | 1 | 1.29e6 | 1.37e6 | 1.22e6 | 1.20e6 | inactive
Sras | 1 | 1.25e6 | 1.55e6 | 1.19e6 | 1.24e6 | inactive
CG11029 | 1 | 1.45e6 | 1.36e6 | 1.11e6 | 1.31e6 | inactive
tapas | 1 | 1.28e6 | 1.35e6 | 1.18e6 | 1.21e6 | inactive

Quoted from the listing for reference:
gene | dsRNA no. | Kc cell number, rep 1 | Kc cell number, rep 2 | S2R+ cell number, rep 1 | S2R+ cell number, rep 2 | call
sqd | 1 | 1.45e6 | 1.59e6 | 1.08e6 | 1.19e6 | inactive
psq | 1 | 2.88e5 | 4.36e5 | 2.94e5 | 4.14e5 | active
Taf3 | 1 | 4.74e5 | – | 7.57e5 | – | inactive
CG6163 | 1 | 1.47e6 | 1.58e6 | 1.40e6 | 1.46e6 | inactive
arx | 1 | 1.55e6 | 1.56e6 | 1.31e6 | 1.31e6 | inactive
CG40498 | 1 | 6.16e5 | – | 8.47e5 | – | inactive
COX6CL | 1 | 1.49e6 | 1.84e6 | 1.13e6 | 1.23e6 | inactive
CG17036 | 1 | 1.80e6 | 2.00e6 | 1.27e6 | 1.40e6 | inactive
prtp | 1 | 1.28e6 | 1.43e6 | 1.04e6 | 1.15e6 | inactive
CG10979 | 1 | 1.31e6 | 1.31e6 | 1.35e6 | 1.48e6 | inactive

Next entries:
gene | dsRNA no. | Kc cell number, rep 1 | Kc cell number, rep 2 | S2R+ cell number, rep 1 | S2R+ cell number, rep 2 | call
Sirt2 | 1 | 1.44e6 | 1.53e6 | 1.04e6 | 1.09e6 | inactive
RpS5a | 1 | 1.35e6 | 1.35e6 | 8.15e5 | 9.47e5 | inactive
CG5217 | 1 | 1.58e6 | 1.55e6 | 1.11e6 | 1.21e6 | inactive
Tim9a | 1 | 1.57e6 | 1.49e6 | 1.12e6 | 1.22e6 | inactive
Rift | 1 | 1.49e6 | 1.44e6 | 1.01e6 | 1.07e6 | inactive
Polr1B | 1 | 1.31e6 | 1.33e6 | 9.12e5 | 9.32e5 | inactive
CG10226 | 1 | 1.33e6 | 1.44e6 | 1.21e6 | 1.18e6 | inactive
CG32085 | 1 | 1.45e6 | 1.53e6 | 1.26e6 | 1.42e6 | inactive
CG32085 | 2 | 1.54e6 | 1.56e6 | 1.27e6 | 1.56e6 | inactive
CG32085 | 3 | 1.53e6 | 1.57e6 | 1.22e6 | 1.39e6 | inactive
Kmn1 | 1 | 1.60e6 | 1.54e6 | 9.20e5 | 9.70e5 | inactive
ND-23 | 1 | 1.54e6 | 1.63e6 | 9.24e5 | 1.03e6 | inactive
CG42241 (retired record) | 1 | 1.46e6 | 1.45e6 | 9.95e5 | 1.06e6 | inactive
GstE3 | 1 | 1.59e6 | 1.59e6 | 1.11e6 | 1.27e6 | inactive
dmpd | 1 | 1.43e6 | 1.43e6 | 1.12e6 | 1.21e6 | inactive
CG4250 | 1 | 1.64e6 | 1.73e6 | 1.30e6 | 1.37e6 | inactive
CG5611 | 1 | 1.69e6 | 1.74e6 | 1.03e6 | 1.17e6 | inactive
SecCl | 1 | 1.29e6 | 1.44e6 | 1.26e6 | 1.32e6 | inactive
Vtld + CG42529 | 1 | 1.38e6 | 1.45e6 | 1.29e6 | 1.32e6 | inactive
CG40045 | 1 | 1.35e6 | 1.33e6 | 1.06e6 | 1.18e6 | inactive
CG31769 | 1 | 1.49e6 | 1.66e6 | 9.61e5 | 1.17e6 | inactive
nod | 1 | 1.32e6 | 1.53e6 | 1.04e6 | 1.11e6 | inactive
nod | 2 | 5.73e5 | – | 7.30e5 | – | inactive
HemK1 | 1 | 1.25e6 | 1.35e6 | 6.49e5 | 7.85e5 | inactive
l(2)34Fc | 1 | 1.63e6 | 1.67e6 | 1.38e6 | 1.57e6 | inactive
Hsp60C | 1 | 1.66e6 | 1.68e6 | 1.22e6 | 1.33e6 | inactive
lncRNA:CR40629 | 1 | 1.68e6 | 1.74e6 | 1.28e6 | 1.26e6 | inactive
eIF4H1 | 1 | 1.47e6 | 1.47e6 | 1.08e6 | 1.21e6 | inactive
CG10801 | 1 | 1.52e6 | 1.57e6 | 1.09e6 | 1.29e6 | inactive
cpx | 1 | 1.52e6 | 1.59e6 | 1.13e6 | 1.31e6 | inactive
